# In paper PMC12772503:
# Results are given in words; binding and its absence hold for the method and conditions named. Binding seen in cells or lysates may run through a third protein. A result given as binding can be weak or reduced; the word gives no strength. Sequences can lack the tags named with a protein.
# Target: HA-tagged RUFY (Drosophila)
# Test: co-IP; lysates (1.0 mg/ml) of transfected HEK293 cells on Pierce anti-HA magnetic beads, 2 h, 4°C; 20 mM HEPES pH 7.4, 130 mM NaCl, 2 mM MgCl2, 0.1% saponin; 60 uM GppNHp with Rab2(wt) and Rab2[Q65L] but not Rab2[S20N]; eluted with 100 mM NaOH or HA peptide; Western blot; in Fig. S2 E cells treated with 2 uM MLi-2 for 2 h or co-transfected with LRRK2^G2019S
row,Binder,binding
1,"myc-Syd-C1 (Syd^530-1226) (domain or fragment, UniProt Q9GQF1 530-1226) GPMFRHTGGGSPAHSHGSPSRGSGGGDNRLALTSGQPPVHPASAGLANALIMPKDYAEEGSSERISARRREQYRQLRAHVQKEDGRLHAYGWSLPINKASQEANPNRHSGGVPVPVYCNPLAEASPHMKVFCAAGVNLHGGFTKNGQSLIPANSPYAPKSTLKIAEITSPTADQSMEALDRQMARVSLETLEPETQLSSFVWICTSTHAASTVSVVDANQSATVLDAFPICASHLLCIASVQGAMESDYALLEQSEVVKAGEMLQRPGEGTELLGKVEFVRVKPKSDDEQNSNEKQQQEEEEAKEATEKSNEQLPAVSAEEPLGNVEAIKIRQPLPGAPQRLSTDGNQTNNNNNSSSSSNLLFATKSLNPILETKDRDEPAMSSVGPTMWLGAQDGWLYVHSSVGRWHECLHRVLLPDAVLAIVHVEARVVVALANAQLAVFRRQTDGQWDLNSYHLVTLGDRNHSIRCLCVAGERIWAAHRNKIFIVDPVSLNIVHSLDAHPRKESQVRQMAATGAGVWVSIRLDSTLRLYNTHTFEHKQDVDIEPYVSKMLGTGKLGFSFVRITALMVSCNRLWIGTSNGVIISVPLAEVQPKSSSDPHGQMPLCCMANAQLSFHGHRDAVKFFVSVPMLQQPNLNGGLTFTNKRPDMLVMCGGEGYIDFRINDNDMENSIQLEPNQTIENRGDKSYLIVWHVSQ",binds
2,"myc-tagged full-length Syd (protein, UniProt Q9GQF1 1-1227) MMDNDDALLNNGGPQSGAETVYGTEDNNMVMSEKNEQVVSIVQQLAGSIYQEFERMINRYDEDVVKNLMPLLVNVLECLDASYRINQEQDVEVELLREDNEQLVTQYEREKSARKQSEQKLLEAEDLAEQENKELATRLESVESIVRMLELKHKNSLEHASRLEEREADLKKEYNKLHERYTELFKNHVDYMERTKMLMGSTHSQMSTASERMDVSRARLNPVARSSGPVSYGFASLENSVMLDTETICSVGSQSDDSGPPSLQNELDNLSGTLERGAATDALQQQHHATSPQSPDSSPVVPNVPTNVGRSTTKKEQRSDNNLYQELSFQDNEESEENEIVTGSWVHPGEYASSANDNYFGMGKEVENLIMENNELLATKNALNIVKDDLIVKVDELTGEVEIVREELNAMQQSRTKLRQRISELEDELKKAKEQVKQQNTEQEENDVPLAQRKRFTRVEMAMVLMERNQYKERLMELQEAVRLTEILRASRTVDNLDRKSKQSIWKYFSNLFTPSNRPTERVADGLGGGPMFRHTGGGSPAHSHGSPSRGSGGGDNRLALTSGQPPVHPASAGLANALIMPKDYAEEGSSERISARRREQYRQLRAHVQKEDGRLHAYGWSLPINKASQEANPNRHSGGVPVPVYCNPLAEASPHMKVFCAAGVNLHGGFTKNGQSLIPANSPYAPKSTLKIAEITSPTADQSMEALDRQMARVSLETLEPETQLSSFVWICTSTHAASTVSVVDANQSATVLDAFPICASHLLCIASVQGAMESDYALLEQSEVVKAGEMLQRPGEGTELLGKVEFVRVKPKSDDEQNSNEKQQQEEEEAKEATEKSNEQLPAVSAEEPLGNVEAIKIRQPLPGAPQRLSTDGNQTNNNNNSSSSSNLLFATKSLNPILETKDRDEPAMSSVGPTMWLGAQDGWLYVHSSVGRWHECLHRVLLPDAVLAIVHVEARVVVALANAQLAVFRRQTDGQWDLNSYHLVTLGDRNHSIRCLCVAGERIWAAHRNKIFIVDPVSLNIVHSLDAHPRKESQVRQMAATGAGVWVSIRLDSTLRLYNTHTFEHKQDVDIEPYVSKMLGTGKLGFSFVRITALMVSCNRLWIGTSNGVIISVPLAEVQPKSSSDPHGQMPLCCMANAQLSFHGHRDAVKFFVSVPMLQQPNLNGGLTFTNKRPDMLVMCGGEGYIDFRINDNDMENSIQLEPNQTIENRGDKSYLIVWHVSQR",binds
3,"V5-tagged DLIC (protein, UniProt Q9VZ20 1-493) MAMNSGTQTNALTSSFTMKKKDAAAEKENLWSAILNEVQTQGSTKLPSNKSVLVLGDNATGKTTLIAKLQGVEDPKKGSGLEYAYIDVKDEYRDDMTRLGVWVLDGDPGHTNLLHYALNETNYAHTLVILTVSMTQPWGWLEQLNHWIKVLGQHIDSLQLDAKEKEAARQRLTTTWQSYCEVGDDLDPGSPVKRTMRNNSIDEDDLLPLTEDALITNLGLDIVVVVTKTDYMTTLEKEYEYRDEHFDFIQQWIRNFCLRHGTSLFYTSVKEDKNCDVLYKYLTHRIYGLPFRTPALVVEKDAVLIPAGWDSLKKISILYENMHGVKAENPYTDIIKSPPTRKAVSNREAEVQTEDEQAFLARQQEILKQGDQVRGESPLRSQGVGSNKSGPRTPGTTGQSSPKKIDPKLTPATPGAEGVLANFFNSLLHKKSGSPGTGGPGGAGNPAGPGRTANGTDAVMTPEKLAVRTDAAAELDRLSRSVKKEIDMSQSEC",binds

# Now from value to binder:
row,binding,Binder
1,no binding,"myc-Syd-N2 (Syd^1-529) (domain or fragment, UniProt Q9GQF1 1-529) MMDNDDALLNNGGPQSGAETVYGTEDNNMVMSEKNEQVVSIVQQLAGSIYQEFERMINRYDEDVVKNLMPLLVNVLECLDASYRINQEQDVEVELLREDNEQLVTQYEREKSARKQSEQKLLEAEDLAEQENKELATRLESVESIVRMLELKHKNSLEHASRLEEREADLKKEYNKLHERYTELFKNHVDYMERTKMLMGSTHSQMSTASERMDVSRARLNPVARSSGPVSYGFASLENSVMLDTETICSVGSQSDDSGPPSLQNELDNLSGTLERGAATDALQQQHHATSPQSPDSSPVVPNVPTNVGRSTTKKEQRSDNNLYQELSFQDNEESEENEIVTGSWVHPGEYASSANDNYFGMGKEVENLIMENNELLATKNALNIVKDDLIVKVDELTGEVEIVREELNAMQQSRTKLRQRISELEDELKKAKEQVKQQNTEQEENDVPLAQRKRFTRVEMAMVLMERNQYKERLMELQEAVRLTEILRASRTVDNLDRKSKQSIWKYFSNLFTPSNRPTERVADGLGG"
2,binds,"V5-tagged Arl8 (protein, UniProt Q9VHV5 1-186) MLALINRILEWFKSIFWKEEMELTLVGLQFSGKTTFVNVIASGQFAEDMIPTVGFNMRKITRGNVTIKVWDIGGQPRFRSMWERYCRGVNAIVYMVDAADLDKLEASRNELHSLLDKPQLAGIPVLVLGNKRDLPGALDETGLIERMNLSSIQDREICCYSISCKEKDNIDITLQWLIQHSKSQSR"
